From patent US20230050148A1, “TGF-BETA INHIBITORS AND USE THEREOF” (SCHOLAR ROCK, INC., priority 2020, published 2023)
Where a chain is given by its changes, count along the chain named. These are yes or no findings as the source states them, for the method shown. Some entries that bind do so weakly or less than the wild type.

The chains behind the UniProt entries cited, without tags or fusion partners. Where a name states a change or a piece, a line headed by the entry shows the natural chain unless it says otherwise.
UniProt P04202: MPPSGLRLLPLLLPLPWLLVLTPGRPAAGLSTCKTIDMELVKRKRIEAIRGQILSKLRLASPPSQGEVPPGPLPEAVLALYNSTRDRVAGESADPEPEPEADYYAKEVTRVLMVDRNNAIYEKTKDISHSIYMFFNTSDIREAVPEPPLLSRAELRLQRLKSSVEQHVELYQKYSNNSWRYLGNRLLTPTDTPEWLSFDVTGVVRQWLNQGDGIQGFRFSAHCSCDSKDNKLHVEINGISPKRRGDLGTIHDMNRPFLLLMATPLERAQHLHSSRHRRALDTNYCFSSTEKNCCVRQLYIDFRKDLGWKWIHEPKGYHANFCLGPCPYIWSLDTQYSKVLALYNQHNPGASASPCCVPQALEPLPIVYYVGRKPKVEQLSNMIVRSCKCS
UniProt P17246: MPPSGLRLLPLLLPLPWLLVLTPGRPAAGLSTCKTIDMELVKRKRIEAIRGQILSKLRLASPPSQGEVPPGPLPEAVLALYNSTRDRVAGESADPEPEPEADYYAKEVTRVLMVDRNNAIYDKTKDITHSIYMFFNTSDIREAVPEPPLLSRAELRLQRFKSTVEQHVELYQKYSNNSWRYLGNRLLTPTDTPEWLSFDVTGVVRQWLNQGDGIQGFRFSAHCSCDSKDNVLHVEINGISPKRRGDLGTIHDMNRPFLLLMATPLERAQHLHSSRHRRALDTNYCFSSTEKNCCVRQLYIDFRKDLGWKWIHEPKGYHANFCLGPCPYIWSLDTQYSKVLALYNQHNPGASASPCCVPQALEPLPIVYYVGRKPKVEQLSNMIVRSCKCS
UniProt Q00918: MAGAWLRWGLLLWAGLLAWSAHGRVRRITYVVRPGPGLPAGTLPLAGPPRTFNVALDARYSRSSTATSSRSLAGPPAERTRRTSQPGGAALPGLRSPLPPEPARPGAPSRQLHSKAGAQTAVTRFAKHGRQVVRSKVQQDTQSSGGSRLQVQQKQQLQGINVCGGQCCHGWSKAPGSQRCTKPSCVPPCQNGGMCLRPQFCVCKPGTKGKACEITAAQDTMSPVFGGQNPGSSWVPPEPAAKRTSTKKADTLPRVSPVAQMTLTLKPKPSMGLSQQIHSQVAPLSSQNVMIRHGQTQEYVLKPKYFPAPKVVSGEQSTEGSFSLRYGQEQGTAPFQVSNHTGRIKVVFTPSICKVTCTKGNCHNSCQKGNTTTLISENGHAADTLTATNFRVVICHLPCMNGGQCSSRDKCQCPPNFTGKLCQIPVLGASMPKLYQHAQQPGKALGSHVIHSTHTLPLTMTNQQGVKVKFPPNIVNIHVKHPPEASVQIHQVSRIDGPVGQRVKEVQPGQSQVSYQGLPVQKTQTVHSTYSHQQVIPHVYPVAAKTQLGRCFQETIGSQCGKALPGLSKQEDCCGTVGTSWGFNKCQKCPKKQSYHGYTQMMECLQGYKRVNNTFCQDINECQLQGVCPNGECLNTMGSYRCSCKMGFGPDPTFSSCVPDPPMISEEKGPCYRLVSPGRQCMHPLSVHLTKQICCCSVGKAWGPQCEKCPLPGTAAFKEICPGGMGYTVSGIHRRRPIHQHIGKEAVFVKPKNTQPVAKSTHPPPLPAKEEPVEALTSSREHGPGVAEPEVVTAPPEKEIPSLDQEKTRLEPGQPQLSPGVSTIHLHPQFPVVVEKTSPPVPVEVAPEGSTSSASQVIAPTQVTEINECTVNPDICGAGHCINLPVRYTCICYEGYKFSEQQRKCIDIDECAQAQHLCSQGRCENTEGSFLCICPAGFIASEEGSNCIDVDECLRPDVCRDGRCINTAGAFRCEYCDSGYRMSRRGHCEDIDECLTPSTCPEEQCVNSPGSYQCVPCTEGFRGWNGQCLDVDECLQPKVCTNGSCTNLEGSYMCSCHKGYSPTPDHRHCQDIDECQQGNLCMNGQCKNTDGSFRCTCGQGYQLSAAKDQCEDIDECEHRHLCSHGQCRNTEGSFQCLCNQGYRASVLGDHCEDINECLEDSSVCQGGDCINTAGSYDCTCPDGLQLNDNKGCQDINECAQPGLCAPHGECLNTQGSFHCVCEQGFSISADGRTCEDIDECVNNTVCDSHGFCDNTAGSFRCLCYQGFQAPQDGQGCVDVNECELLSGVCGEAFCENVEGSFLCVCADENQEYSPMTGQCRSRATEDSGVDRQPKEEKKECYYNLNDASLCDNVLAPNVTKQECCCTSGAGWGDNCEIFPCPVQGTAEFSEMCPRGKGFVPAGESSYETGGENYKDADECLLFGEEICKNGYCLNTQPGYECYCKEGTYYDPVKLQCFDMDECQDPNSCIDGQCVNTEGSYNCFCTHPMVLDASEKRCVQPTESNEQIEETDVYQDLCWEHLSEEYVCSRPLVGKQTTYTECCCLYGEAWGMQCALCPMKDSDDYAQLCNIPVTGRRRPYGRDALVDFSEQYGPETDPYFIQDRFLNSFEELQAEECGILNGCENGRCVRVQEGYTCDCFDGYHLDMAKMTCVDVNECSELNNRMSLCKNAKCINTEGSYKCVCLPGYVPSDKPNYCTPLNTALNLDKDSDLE
UniProt Q5BK65: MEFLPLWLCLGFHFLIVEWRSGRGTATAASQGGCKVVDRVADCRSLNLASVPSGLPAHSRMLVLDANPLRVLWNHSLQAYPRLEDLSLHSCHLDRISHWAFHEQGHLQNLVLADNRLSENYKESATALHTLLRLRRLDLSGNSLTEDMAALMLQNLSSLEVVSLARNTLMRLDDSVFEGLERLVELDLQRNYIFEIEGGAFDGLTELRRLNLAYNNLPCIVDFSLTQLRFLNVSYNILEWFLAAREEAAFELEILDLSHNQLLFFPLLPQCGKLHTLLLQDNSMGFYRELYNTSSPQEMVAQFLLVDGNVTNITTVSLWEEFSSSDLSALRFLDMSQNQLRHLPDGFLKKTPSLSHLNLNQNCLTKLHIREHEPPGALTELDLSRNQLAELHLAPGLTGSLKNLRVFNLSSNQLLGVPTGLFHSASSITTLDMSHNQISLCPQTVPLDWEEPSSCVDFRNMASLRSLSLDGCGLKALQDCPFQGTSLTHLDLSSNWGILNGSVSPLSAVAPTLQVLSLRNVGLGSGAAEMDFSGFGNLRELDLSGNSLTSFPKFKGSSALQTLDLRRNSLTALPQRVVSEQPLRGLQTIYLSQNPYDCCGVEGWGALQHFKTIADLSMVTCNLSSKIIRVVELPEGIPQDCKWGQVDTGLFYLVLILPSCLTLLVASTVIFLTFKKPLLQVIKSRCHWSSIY
UniProt P01137: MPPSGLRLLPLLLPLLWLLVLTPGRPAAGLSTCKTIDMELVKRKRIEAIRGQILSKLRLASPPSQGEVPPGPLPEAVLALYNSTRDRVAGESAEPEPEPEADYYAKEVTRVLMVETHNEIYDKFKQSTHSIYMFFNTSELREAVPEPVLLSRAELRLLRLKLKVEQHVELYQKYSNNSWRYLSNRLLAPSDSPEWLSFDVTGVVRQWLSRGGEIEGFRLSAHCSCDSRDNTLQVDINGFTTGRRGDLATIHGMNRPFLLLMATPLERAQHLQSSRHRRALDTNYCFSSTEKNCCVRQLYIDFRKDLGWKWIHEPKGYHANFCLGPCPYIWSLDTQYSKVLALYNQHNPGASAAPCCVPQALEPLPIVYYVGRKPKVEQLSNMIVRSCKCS

Columns and labels:
[1] = target: recombinant murine LTBP1-proTGFβ1 complex (mouse) (UniProt P04202); test: BLI screen of library antibodies
[2] = target: recombinant murine LTBP3-proTGFβ1 complex (mouse) (UniProt P04202); test: BLI screen of library antibodies
[3] = target: cynomolgus LRRC33-proTGFβ1 complex (cynomolgus monkey); test: MSD-SET
[4] = target: rat LTBP1-proTGFβ1 complex (rat) (UniProt P17246+Q00918); test: MSD-SET
[5] = target: rat LRRC33-proTGFβ1 complex (rat) (UniProt P17246+Q5BK65); test: MSD-SET
[6] = target: cell-surface LRRC33-proTGFβ1 on Expi293 cells (Homo sapiens (Human)) (UniProt P01137); test: Incucyte internalization assay with pH-sensitive label, Expi293 cells

Measured: binding

B1: Ab4 (antibody, V domains shown)
VH: EVQLVESGGGLVQPGGSLRLSCAASGFTFSSYSMNWVRQAPGKGLEWVSYISSSSSTIYYADSVKGRFTISRDNAKNSLYLQMNSLRAEDTAVYYCARGVLDYGDMLDPWGQGTLVTVSS
VL: DIQMTQSPSSLSASVGDRVTITCQASQDITNYLNWYQQKPGKAPKLLIYDASNLETGVPSRFSGSGSGTDFTFTISSLQPEDIATYYCQQADNHPPWTFGGGTKVEIK
binds: [1] | [2]

B2: Ab6 (antibody, V domains shown)
VH: B1 VH with A23T, Y32F, N35D, S53P, S55A, S56D, S78T, D108M
VL: DIQMTQSPSSLSASVGDRVTITCQASQDITNYLNWYQQKPGKAPKLLIYDASNLETGVPSRFSGSGSGTDFTFTISSLQPEDIATYYCQQADNHPPWTFGGGTKVEIKR
binds: [3] | [4] | [5] | [6]
